# Results taken from PubChem BioAssay AID504842 (National Center for Advancing Translational Sciences (NCATS), 2011).
# The campaign covered roughly 330,000 compounds. About 100 (0.03%) were called active. This list was built around the results that the source calls inconclusive (neither active nor inactive); the mix of calls is not that of the screen. Calls follow the shape of the dose curve; as a rule, active = well fitted inhibition curve with a large enough effect; inconclusive = small, poorly fitted or top-dose-only effect; inactive = flat fitted curve, though single readings scatter. Potencies of inconclusive entries are doubtful fits and often do not repeat.
# Test system: Chaperonin Mm-Cpn (Methanococcus maripaludis)
# Test: Inhibitors of TCP-1 ring complex (TRiC) of Methanococcus maripaludis (MmCpn): qHTS; also: nearly all actives have a fitted effect of over 80% in size;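 as to Potency: enzyme at 25 nM with ATP substrate at 10 µM during the reaction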
# Conditions: purified Mm-Cpn ATPase, ADP Transcreener TR-FRET; series mostly up to 76.9 µM; activity, negative = inhibition: at the top concentration
# In short: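 Purified archaeal chaperonin (25 nM final) was preincubated with compound for 10 min at 37°C, then ATP (10 uM final) was added for 30 min at 37°C in Tris pH 7.4/KCl/MgCl2/DTT buffer. ADP was quantified by HTRF Transcreener TR-FRET.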
# % is scaled to controls: 0 for no effect and ±100 for the full control effect; potency is read from the fitted curve at half-maximal effect.
Compound,Potency,"activity, negative = inhibition"
Cc1cc(C(=O)Nc2ccc(CC(=O)O)cc2)c(C)o1,"inconclusive: 14.1 µM [inhibitor, single point]",
C=CCn1c(O)c(C(C)=Nc2ccc(C(=O)OCC)cc2)c(=O)[nH]c1=O,"inconclusive: 25.1 µM [inhibitor, single point]",
CC1(C)CC(CCNCc2ccc3c(c2)OCO3)(Cc2ccccc2)CCO1 (centres undefined),"inconclusive: 22.4 µM [inhibitor, single point]",
CC1(C)COC(Nc2ccc(Cl)cc2)=N1,"inconclusive: 89.1 µM [inhibitor, single point]",
COC(=O)C1=C(c2ccc(-c3ccccc3)c(F)c2)C[C@@H]2CC[C@H]1N2C(=O)N1CCOCC1,,inactive: -1.02%
Cc1ccccc1-n1c(O)c(/C=C2/C(c3ccccc3)=Nc3ccccc32)c(=O)[nH]c1=O,"inconclusive: 28.2 µM [inhibitor, single point]",
O=c1[nH]c(=S)n(-c2ccccc2)c(O)c1/C=N/N1CCOCC1,"inconclusive: 22.4 µM [inhibitor, single point]",
CC1CCCC(C)N1C(=O)CSc1nc2c(c(=O)n(C)c(=O)n2C)n1C (centres undefined),"inconclusive: 14.1 µM [inhibitor, single point]",
CN(C)c1ccc(/C=C/C=C/c2sc3ccccc3[n+]2C)cc1,"inconclusive: 316 µM [inhibitor, partial curve, poor fit]",
COCCCNC(=O)c1c(N)n(Cc2ccco2)c2nc3ccccc3nc12,,inactive: -3.76%
Cc1[nH]c2ccccc2c1C(=O)CN1CC=C(c2ccccc2)CC1,,inactive: 1.78%
COc1cc(NC(=O)CCn2c(=O)oc3ccccc32)cc(OC)c1OC,"inconclusive: 89.1 µM [inhibitor, single point]",
CCOP(=O)(OCC)C(CC)N1CCOCC1 (centres undefined),,inactive: -0.601%
Cc1cc2cc(CNC(=O)Nc3ccc(Cl)c(Cl)c3)ccc2n1C,"inconclusive: 56.2 µM [inhibitor, partial curve, poor fit]",
COc1ccccc1OCCCn1cc(C(C)=O)c2ccccc21,"inconclusive: 79.4 µM [inhibitor, single point]",
Clc1ccccc1CN1CCN(c2ccccc2)CC1,"inconclusive: 89.1 µM [inhibitor, single point]",
CC[n+]1c(/C=C/C=C/c2ccc(N(C)C)cc2)sc2ccccc21,"inconclusive: 50.1 µM [inhibitor, partial curve, poor fit]",
N/C(=N\N=C\c1ccc(O)cc1O)N[N+](=O)[O-],,inactive: 1.7%
CC1CCCN(C(=O)C2CCC(CNc3c(N4CCCCC4)c(=O)c3=O)CC2)C1 (centres undefined),"inconclusive: 12.6 µM [inhibitor, single point]",
O=C(COc1ccc(Cl)cc1)NC1CN2CCC1CC2 (centres undefined),"inconclusive: 14.1 µM [inhibitor, single point]",
COc1cccc(CN2CCN(C(=O)COc3ccc4ccccc4c3)CC2)c1,,inactive: -0.115%
O=C1NCCOC(=O)[C@H](Cc2ccc(F)cc2)CC/C=C/C[C@@H]1CC(=O)N(CCO)Cc1ccccc1,"inconclusive: 22.4 µM [inhibitor, single point]",
N#Cc1ccc(N2CCNCC2)c(F)c1,,inactive: -0.534%

# 5 of the compounds above, tab-delimited:
Compound	Potency	activity, negative = inhibition
O=c1[nH]c(=S)n(-c2ccccc2)c(O)c1/C=N/N1CCOCC1	inconclusive: 22.4 µM [inhibitor, single point]	
CC1CCCC(C)N1C(=O)CSc1nc2c(c(=O)n(C)c(=O)n2C)n1C (centres undefined)	inconclusive: 14.1 µM [inhibitor, single point]	
Cc1cc2cc(CNC(=O)Nc3ccc(Cl)c(Cl)c3)ccc2n1C	inconclusive: 56.2 µM [inhibitor, partial curve, poor fit]	
COc1ccccc1OCCCn1cc(C(C)=O)c2ccccc21	inconclusive: 79.4 µM [inhibitor, single point]	
O=C(COc1ccc(Cl)cc1)NC1CN2CCC1CC2 (centres undefined)	inconclusive: 14.1 µM [inhibitor, single point]	

# The listing continues.

Compound,Potency,"activity, negative = inhibition"
O=C(Nc1ccc(Oc2ccc(Cl)cc2)c(Cl)c1)c1cc(I)cc(I)c1O,"inconclusive: 20 µM [inhibitor, single point]",
COc1ccc(OCC#CCN2CCC(C)CC2)cc1,,inactive: -1.21%
COc1ccc2sc(-c3ccccc3OC)c(-c3ccc(OCCN4CCOCC4)cc3)c2c1,"inconclusive: 28.2 µM [inhibitor, partial curve, poor fit]",
CCn1c(O)c(C=Nc2ccc(S(N)(=O)=O)cc2)c(=O)n(CC)c1=S,"inconclusive: 100 µM [inhibitor, single point]",
C[n+]1c2ccccc2nc2ccc(NCCO)cc21,"inconclusive: 70.8 µM [inhibitor, partial curve, poor fit]",
CC(C)(C)c1o[nH]c(=O)c1CC(N)C(=O)O (centres undefined),,inactive: 0.168%
CC(C)n1c(=O)c(C=Nc2ccc(Cl)cc2)c(O)n(Cc2ccco2)c1=O,"inconclusive: 89.1 µM [inhibitor, single point]",
O=C(N/N=C\C1C(=O)NC(=S)N(c2ccccc2)C1=O)c1ccc(O)cc1 (centres undefined),,inactive: -0.897%
CC(=O)Nc1ccccc1C(=O)OCC(=O)Nc1ncccn1,"inconclusive: 79.4 µM [inhibitor, single point]",
CCOC(=O)c1c(NS(=O)(=O)c2ccccc2)n(CCCOC)c2nc3ccccc3nc12,,inactive: -7.79%
CCn1c(COc2cccc3ccccc23)nnc1SCC(N)=O,"inconclusive: 20 µM [inhibitor, single point]",
O=C(c1cc(C(=O)NCc2ccccc2)c(=O)n(Cc2ccccc2)c1)c1cc(Cl)ccc1O,"inconclusive: 282 µM [inhibitor, partial curve, poor fit]",
COc1nc2ccccc2nc1N1CCN(C)CC1,"inconclusive: 25.1 µM [inhibitor, partial curve, poor fit]",
Cc1nn(-c2ccccc2)c(Cl)c1C1C(C#N)=C(N)Oc2c1c(=O)oc1ccccc21 (centres undefined),,inactive: -3.14%
CC(=O)Nc1ccc(CC(=O)N2CCN(Cc3ccccc3)CC2)cc1,"inconclusive: 12.6 µM [inhibitor, single point]",
COc1ccc(NC2=NCC(C)S2)cc1 (centres undefined),"inconclusive: 22.4 µM [inhibitor, single point]",
OCC[n+]1c2ccccc2nc2ccc(N3CCOCC3)cc21,"inconclusive: 31.6 µM [inhibitor, partial curve, poor fit]",
Nc1ccc(CCN2CCCC2)cc1,,inactive: -1.22%
CC(=O)c1c(O)n(C)c(=S)n(-c2ccccc2)c1=O,"inconclusive: 89.1 µM [inhibitor, single point]",
CC(=O)c1cn(CCCOc2ccccc2)c2ccccc12,,inactive: 2.14%
COc1ccc2c(c1OC)C[N+]1([O-])CCc3cc4c(cc3C1C2)OCO4 (centres undefined),"inconclusive: 25.1 µM [inhibitor, single point]",
Cn1c(=O)cc(OCCCC(=O)N2CCC3(CC2)OCCO3)c2ccccc21,"inconclusive: 89.1 µM [inhibitor, single point]",
C[C@H](CO)N1C[C@H](C)[C@@H](CN(C)S(=O)(=O)c2cccs2)Oc2ccc(NC(=O)Nc3ccc4c(c3)OCO4)cc2C1=O,"inconclusive: 14.1 µM [inhibitor, single point]",

Compound,Potency,"activity, negative = inhibition"
CCC(=NCCc1ccccc1)c1c(O)n(C2CCCCC2)c(=O)[nH]c1=O,"inconclusive: 89.1 µM [inhibitor, single point]",
CC1C2Cc3ccc(O)cc3[C@]1(C)CCN2CCc1ccccc1 (some centres undefined),,inactive: 0.62%
CCCCS(=O)(=O)N1CCN(C(=N)N[N+](=O)[O-])CC1,"inconclusive: 126 µM [inhibitor, partial curve, poor fit]",
CCC(C)NC(=O)c1c(N)n(CC2CCCO2)c2nc3ccccc3nc12 (centres undefined),,inactive: -2.12%
C=CC1CN2CCC1CC2c1[nH]c2ccccc2c1CCO (centres undefined),"inconclusive: 12.6 µM [inhibitor, single point]",
CC(CN(C)C1CCN(C)CC1)c1ccccc1 (centres undefined),"inconclusive: 17.8 µM [inhibitor, single point]",
O=c1[nH]c2ccccc2n1C1CCN(CCCC(c2ccc(F)cc2)c2ccc(F)cc2)CC1,,inactive: -3.99% [at 15.4 µM]
O=C1CN=C(c2ccccc2)c2ccccc2N1,,inactive: -0.684%
CC(C)c1nnc(NC(=O)c2cccc(-n3cnnn3)c2)s1,"inconclusive: 224 µM [inhibitor, partial curve, poor fit]",
CCOC(=O)C1(CCOc2ccccc2)CCN(Cc2cnc(SC)nc2)CC1,"inconclusive: 8.91 µM [inhibitor, partial curve, poor fit]",
O=c1[nH]c(=O)n(Cc2ccccc2)c(O)c1C=Nc1ccc(CN2CCOCC2)cc1,"inconclusive: 100 µM [inhibitor, single point]",
Cc1cc(C=C2C(=O)N(C)C(=S)N(C)C2=O)c(C)n1-c1ccncc1,"inconclusive: 89.1 µM [inhibitor, single point]",
COC(=O)CSC1=NN1c1cc(C)nc(N)n1,,inactive: 1.8%
C[C@]12CCC3=C4CCC(=O)C=C4CC[C@H]3C1CC[C@@H]2O (some centres undefined),"inconclusive: 11.2 µM [inhibitor, single point]",
O=C(O)C1C2CCC(O2)C1C(=O)Nc1cccc(Br)c1 (centres undefined),,inactive: -0.912%
Nc1c(Br)cc([N+](=O)[O-])cc1[N+](=O)[O-],"inconclusive: 100 µM [inhibitor, single point]",
CC(C)=CCCC(C)CN(C)CCc1ccccn1 (centres undefined),"inconclusive: 25.1 µM [inhibitor, single point]",
COC(=O)C1=C(c2ccc(F)cc2F)C[C@@H]2CC[C@H]1N2C(=O)NC(C)C,"inconclusive: 79.4 µM [inhibitor, single point]",
CCOC(=O)c1c(-n2c(C)cc(C=C3C(=O)NC(=O)NC3=O)c2C)sc2c1CCCC2,,inactive: -3.65%
COc1c(C=C2C(=O)NC(=O)NC2=O)c(CCN(C)C(=O)c2ccccc2)cc2c1OCO2,"inconclusive: 100 µM [inhibitor, partial curve, poor fit]",
O=C(C1CCC(=O)N1C1CCCC1)N1CCC2(CC1)OCCO2 (centres undefined),"inconclusive: 56.2 µM [inhibitor, single point]",
CCCC1C(C#N)=C(N)Oc2c1c(=O)oc1ccccc21 (centres undefined),"inconclusive: 89.1 µM [inhibitor, single point]",
CCCCn1c(NS(=O)(=O)c2ccccc2)c(C(=O)OCC)c2nc3ccccc3nc21,active: 44.7 µM,
